No constants are given. Whether binding was seen depends on the method and setting. In cells and extracts the contact can be indirect. Here binding means that the protein was enriched with, or labelled near, the bait; the list need not be complete.

Amino acid sequences for entries named in this document (tags omitted).
UniProt P49597: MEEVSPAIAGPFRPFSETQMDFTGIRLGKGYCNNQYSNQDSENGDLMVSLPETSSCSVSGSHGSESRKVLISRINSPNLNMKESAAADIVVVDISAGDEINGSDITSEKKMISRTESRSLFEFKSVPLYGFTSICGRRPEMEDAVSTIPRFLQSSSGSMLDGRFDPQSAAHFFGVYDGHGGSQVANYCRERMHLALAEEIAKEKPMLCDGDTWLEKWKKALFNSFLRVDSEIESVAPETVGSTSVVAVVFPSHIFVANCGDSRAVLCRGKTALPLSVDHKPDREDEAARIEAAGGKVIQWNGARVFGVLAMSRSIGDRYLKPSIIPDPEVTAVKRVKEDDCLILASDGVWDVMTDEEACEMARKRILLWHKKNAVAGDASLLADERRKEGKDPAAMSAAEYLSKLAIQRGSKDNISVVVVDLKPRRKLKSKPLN

The test deals with ABI1-Flag (Arabidopsis thaliana) (UniProt P49597). The test is described as follows: affinity purification with mass spectrometry; ProABI1:ABI1-Flag transgenic seedlings; lysate on Flag-beads 2.5 h at 4 °C, elution with Flag peptide, LC-MS/MS.

B1: PUB12 (endogenous) (enzyme, UniProt Q9ZV31 1-654)
chain: MAKSEKHKLAQTLIDSINEIASISDSVTPMKKHCANLSRRLSLLLPMLEEIRDNQESSSEVVNALLSVKQSLLHAKDLLSFVSHVSKIYLVLERDQVMVKFQKVTSLLEQALSIIPYENLEISDELKEQVELVLVQLRRSLGKRGGDVYDDELYKDVLSLYSGRGSVMESDMVRRVAEKLQLMTITDLTQESLALLDMVSSSGGDDPGESFEKMSMVLKKIKDFVQTYNPNLDDAPLRLKSSLPKSRDDDRDMLIPPEEFRCPISLELMTDPVIVSSGQTYERECIKKWLEGGHLTCPKTQETLTSDIMTPNYVLRSLIAQWCESNGIEPPKRPNISQPSSKASSSSSAPDDEHNKIEELLLKLTSQQPEDRRSAAGEIRLLAKQNNHNRVAIAASGAIPLLVNLLTISNDSRTQEHAVTSILNLSICQENKGKIVYSSGAVPGIVHVLQKGSMEARENAAATLFSLSVIDENKVTIGAAGAIPPLVTLLSEGSQRGKKDAATALFNLCIFQGNKGKAVRAGLVPVLMRLLTEPESGMVDESLSILAILSSHPDGKSEVGAADAVPVLVDFIRSGSPRNKENSAAVLVHLCSWNQQHLIEAQKLGIMDLLIEMAENGTDRGKRKAAQLLNRFSRFNDQQKQHSGLGLEDQISLI
For B1, the binding result is reported as “binds”.

The values are drawn from publication PMC4667695.
